About 670 (0.2%) of roughly 330,000 compounds were called active. Inconclusive results, whose numbers are uncertain, are shown with a selection of clear calls.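 How the source made its calls: active means activity change below a set negative limit, meaning inhibition stronger than a set level (cut at about -70% in these data); inconclusive means activity change between two set negative limits; inactive means the rest.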
target: Thyrotropin receptor (Homo sapiens) (UniProt P16473); experiment: Antagonists of the Thyroid Stimulating Hormone Receptor: HTS campaign; conditions: TSHR-expressing cells, TSH-stimulated cAMP HTRF, 2 h; at 11.5 µM; hits give low values
Excerpt: The thyroid-stimulating hormone receptor (TSHR) is a member of the 7 trans-membrane-spanning receptor (7TMR) family of cell surface receptors. TSHR-mediated hyperthyroidism is important in thyroid pathology. The development of small molecule antagonists of TSHR may lead to therapeutic approaches for TSHR-mediated hyperthyroidism caused by constitutively activating mutations or stimulating auto-antibodies associated with Graves' disease. Graves' disease is the leading cause of hyperthyroidism and is caused by autoantibodies that stimulate TSHR (TsAbs) causing thyroid growth and unregulated overproduction of thyroid hormones and existing treatments have liabilities (agranulocytosis). In addition, TSHRs are known to be expressed in multiple extrathyroidal tissues including bone, brain, kidney, testis, fat and cells of the immune system but the role of the TSHR in these tissues is not clear. Therefore, TSHR antagonists/inverse agonists could be used as probes of extrathyroidal TSHR function. Finally, TSHR inverse agonists, which are a subclass of antagonists that inhibit agonist-independent (or basal or constitutive) TSHR signaling, could be used to inhibit TSH-independent signaling in patients with recurrent or metastatic thyroid cancer who are receiving thyroid hormone to suppress TSH. In collaboration between scientist from the NCGC and the NIDDK, a miniaturized HTRF high-throughput screen was developed. It's a cell based assay, where an anti cAMP antibody contains a fluorescent cryptate tag (excitation 337 nm; emission 620 nm) and the acceptor is cAMP-d2 (excitation 620 nm; emission 665 nm). When antibody and cAMP-d2 interact and are excited by a 337 nm light, a FRET occurs resulting in emission at 665 nm. The assay is competition between cAMP-d2 and cAMP (from the cell lysate). The homogeneous protocol allows for one step dispense after stimulation that is automation friendly. NIH Chemical Genomics Center [NCGC] NIH Molecular Libraries Probe Centers Network [MLPCN] MLPCN Grant: MH090855-01 Assay Submitter (PI): Marvin Gerhengorn
1. 3ul of 200 TSHR freshly harvested cells/well are dispensed into a 1536 TC-treated white solid bottom plate. 2. Through pintool addition, 23nl of compounds and control in 100% DMSO are added to the plate. 3. Then 1ul of EC80 TSH (4nM final) is added to the plate. 4. Assay is incubated at 37 deg C for 2 hours. 5. 2ul of cAMP antibody diluted 1:20 in lysis buffer is added. 6. Immediately following, 2ul of d2 diluted 1:20 in HBSS is added seperately. 7. The assay is incubated for 30 minutes at ambient room temperature. 8. The result is obtained by using a ViewLux read-out with HTRF settings.
On the % scale 0 is the no-effect control and ±100 the full control effect.

By UniProt entry, the sequences of proteins in these tests, tags left out.
UniProt P16473, whole entry, looked up: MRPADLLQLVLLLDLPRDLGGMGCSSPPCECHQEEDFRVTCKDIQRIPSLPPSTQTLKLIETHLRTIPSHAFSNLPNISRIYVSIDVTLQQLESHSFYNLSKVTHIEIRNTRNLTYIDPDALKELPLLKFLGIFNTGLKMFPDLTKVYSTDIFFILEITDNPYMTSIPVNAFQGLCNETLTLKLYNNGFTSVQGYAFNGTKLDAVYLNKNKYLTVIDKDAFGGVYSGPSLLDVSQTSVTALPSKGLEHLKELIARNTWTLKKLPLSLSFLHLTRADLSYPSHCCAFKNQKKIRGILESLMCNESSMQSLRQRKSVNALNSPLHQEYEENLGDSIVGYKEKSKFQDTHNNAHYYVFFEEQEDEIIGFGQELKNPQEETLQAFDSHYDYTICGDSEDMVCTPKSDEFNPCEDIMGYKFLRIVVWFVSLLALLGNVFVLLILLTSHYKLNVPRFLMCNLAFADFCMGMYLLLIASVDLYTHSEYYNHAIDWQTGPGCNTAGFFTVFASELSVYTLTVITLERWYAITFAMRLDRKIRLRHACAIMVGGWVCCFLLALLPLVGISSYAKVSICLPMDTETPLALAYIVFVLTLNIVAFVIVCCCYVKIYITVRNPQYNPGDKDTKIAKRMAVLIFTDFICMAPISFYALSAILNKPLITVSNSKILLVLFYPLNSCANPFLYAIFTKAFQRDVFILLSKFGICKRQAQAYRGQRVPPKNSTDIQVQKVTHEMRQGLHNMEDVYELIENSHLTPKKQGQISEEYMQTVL

| Structure (SMILES) | activity change, negative = inhibition |
| --- | --- |
| COc1ccc(C)cc1S(=O)(=O)N1CCCC(C(=O)N2CCN(c3ccccc3)CC2)C1 (centres undefined) | inconclusive: -55.3% |
| O=C(CSc1nnc(NC(=O)c2cccc(Br)c2)s1)NCC1CCCO1 (centres undefined) | inconclusive: -54.6% |
| CCCNC(=O)c1cc(Cl)c(NC(=O)C2=CSCCO2)cc1OC | inactive: -4.29% |
| O=C(OCCc1cc2ccccc2c(=O)o1)c1ccccc1C(F)(F)F | active: -71.2% |
| Cc1c(/C=N/NC(=O)c2ccccc2O)c2ccccn2c1C(=O)c1ccc(F)cc1 | inconclusive: -51.5% |
| N#CC1=C(Nc2ccccc2)SC=C(c2ccc(Br)cc2)N=C1N1CCOCC1 | inconclusive: -52.4% |
| Cc1ccc2nc(-c3ccc(NC(=O)c4cccnc4)cc3)oc2c1 | inconclusive: -52.2% |
| CCCn1c(NC(=O)CCS(=O)(=O)c2ccc(C)cc2)nc2ccccc21 | inactive: 6.13% |
| O=C(N[C@@H](Cc1ccccc1)C(=O)CCl)OCc1ccccc1 | inconclusive: -50.9% |
| Cc1nc2ccccc2n1CC(=O)N/N=C\C=C\c1ccccc1 | active: -80.7% |
| CN1CCN(C2=CC3=CC(=C(C#N)C#N)CCC3CC2)CC1 (centres undefined) | active: -92.7% |
| O=C(N1CCOCC1)n1nnc2ccccc21 | inconclusive: -51.6% |
| Oc1cccc(/C=N/NC(=S)Nc2cccnc2)c1O | inactive: -0.394% |
| Nc1ncc(Br)cc1S(=O)(=O)Nc1cc(C(F)(F)F)cc(C(F)(F)F)c1 | inconclusive: -65.2% |
| CCOc1ccc(N(CC(=O)NCc2ccc(F)cc2)C(=O)CCC(=O)Nc2nccs2)cc1 | active: -94.6% |
| Cc1ccc(-c2csc(N3CCC(NS(=O)(=O)c4ccc5c(c4)OCCO5)CC3)n2)cc1 | inconclusive: -59.8% |
| Cc1[nH]n(-c2ccccc2)c(=O)c1N=Nc1c(O)cc(S(=O)(=O)N(C)C)c2ccccc12 | inconclusive: -59.3% |
| Fc1ccc(-n2cc(CNCCc3ccccn3)c(-c3ccccc3Cl)n2)cc1 | inactive: -6.67% |
| COc1ccc(CCNc2ncnc3sc(C)cc23)cc1OC | inconclusive: -67.4% |
| CCCC(=NC(C)CC)C1=C(O)CC(c2ccccc2)CC1=O (centres undefined) | active: -88.4% |
| O=C(Nc1ccc(Br)c(C(F)(F)F)c1)c1ccc(C(F)(F)F)cc1 | inconclusive: -63.6% |
| COC(=O)c1ccc(C2N=C(c3cccs3)CC(c3ccccc3O)N2)cc1 (centres undefined) | inconclusive: -62% |
| CCn1c(=O)c([N+](=O)[O-])c(Cl)c2ccccc21 | active: -79.2% |
| CSc1ncc(Cl)c(C(=O)Nc2nnc(SC/C=C/c3ccccc3)s2)n1 | inconclusive: -51.5% |

Some of the entries above, set out differently:
Structure (SMILES),"activity change, negative = inhibition"
N#CC1=C(Nc2ccccc2)SC=C(c2ccc(Br)cc2)N=C1N1CCOCC1,inconclusive: -52.4%
Fc1ccc(-n2cc(CNCCc3ccccn3)c(-c3ccccc3Cl)n2)cc1,inactive: -6.67%
